Data from article PMC5772495.
These are yes or no findings as the source states them, for the method shown. In cells and extracts the contact can be indirect. Some binding calls cover weakened binding; strength is not graded here.

By UniProt entry, the sequences of proteins in these tests, tags left out.
UniProt Q8TEK3: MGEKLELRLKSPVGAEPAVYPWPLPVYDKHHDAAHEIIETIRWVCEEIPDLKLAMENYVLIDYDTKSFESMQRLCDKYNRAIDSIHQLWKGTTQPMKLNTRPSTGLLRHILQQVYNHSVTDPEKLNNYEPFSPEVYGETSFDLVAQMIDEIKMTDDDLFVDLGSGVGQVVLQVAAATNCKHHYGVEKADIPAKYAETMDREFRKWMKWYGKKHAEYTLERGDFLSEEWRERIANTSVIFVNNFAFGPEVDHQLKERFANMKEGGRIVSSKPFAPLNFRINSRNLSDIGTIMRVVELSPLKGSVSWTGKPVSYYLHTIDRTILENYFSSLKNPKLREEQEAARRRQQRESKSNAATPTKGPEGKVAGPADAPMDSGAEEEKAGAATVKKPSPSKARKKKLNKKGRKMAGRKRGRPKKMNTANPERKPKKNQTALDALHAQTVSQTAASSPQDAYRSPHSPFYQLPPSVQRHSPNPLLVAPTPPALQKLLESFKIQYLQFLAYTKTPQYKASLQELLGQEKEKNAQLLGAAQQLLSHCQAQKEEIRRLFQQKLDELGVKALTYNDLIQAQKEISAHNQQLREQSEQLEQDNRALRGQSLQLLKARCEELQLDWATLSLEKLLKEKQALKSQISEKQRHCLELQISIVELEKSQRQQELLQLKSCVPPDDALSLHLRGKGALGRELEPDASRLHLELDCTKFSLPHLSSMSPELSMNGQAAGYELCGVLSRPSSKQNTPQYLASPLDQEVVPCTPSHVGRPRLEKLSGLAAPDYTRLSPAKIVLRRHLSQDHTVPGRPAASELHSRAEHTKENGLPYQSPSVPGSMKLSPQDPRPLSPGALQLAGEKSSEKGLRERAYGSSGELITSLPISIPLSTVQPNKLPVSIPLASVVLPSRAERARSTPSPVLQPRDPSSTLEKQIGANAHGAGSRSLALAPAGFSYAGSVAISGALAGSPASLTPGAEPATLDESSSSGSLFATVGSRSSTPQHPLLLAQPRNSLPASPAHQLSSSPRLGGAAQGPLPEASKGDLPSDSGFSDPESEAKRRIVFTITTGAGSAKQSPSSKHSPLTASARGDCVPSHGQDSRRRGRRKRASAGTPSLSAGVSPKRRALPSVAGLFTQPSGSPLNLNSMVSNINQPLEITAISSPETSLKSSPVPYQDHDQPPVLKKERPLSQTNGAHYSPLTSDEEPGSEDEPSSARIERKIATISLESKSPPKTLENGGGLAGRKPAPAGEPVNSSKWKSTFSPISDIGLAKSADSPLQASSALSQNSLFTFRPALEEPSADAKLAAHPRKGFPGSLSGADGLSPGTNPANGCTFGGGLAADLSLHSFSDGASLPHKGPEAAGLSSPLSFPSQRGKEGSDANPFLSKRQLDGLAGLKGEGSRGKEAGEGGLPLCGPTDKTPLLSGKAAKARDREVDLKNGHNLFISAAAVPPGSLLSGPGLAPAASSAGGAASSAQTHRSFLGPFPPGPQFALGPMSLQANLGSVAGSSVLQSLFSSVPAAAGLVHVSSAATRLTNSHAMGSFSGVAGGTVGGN
UniProt Q01831: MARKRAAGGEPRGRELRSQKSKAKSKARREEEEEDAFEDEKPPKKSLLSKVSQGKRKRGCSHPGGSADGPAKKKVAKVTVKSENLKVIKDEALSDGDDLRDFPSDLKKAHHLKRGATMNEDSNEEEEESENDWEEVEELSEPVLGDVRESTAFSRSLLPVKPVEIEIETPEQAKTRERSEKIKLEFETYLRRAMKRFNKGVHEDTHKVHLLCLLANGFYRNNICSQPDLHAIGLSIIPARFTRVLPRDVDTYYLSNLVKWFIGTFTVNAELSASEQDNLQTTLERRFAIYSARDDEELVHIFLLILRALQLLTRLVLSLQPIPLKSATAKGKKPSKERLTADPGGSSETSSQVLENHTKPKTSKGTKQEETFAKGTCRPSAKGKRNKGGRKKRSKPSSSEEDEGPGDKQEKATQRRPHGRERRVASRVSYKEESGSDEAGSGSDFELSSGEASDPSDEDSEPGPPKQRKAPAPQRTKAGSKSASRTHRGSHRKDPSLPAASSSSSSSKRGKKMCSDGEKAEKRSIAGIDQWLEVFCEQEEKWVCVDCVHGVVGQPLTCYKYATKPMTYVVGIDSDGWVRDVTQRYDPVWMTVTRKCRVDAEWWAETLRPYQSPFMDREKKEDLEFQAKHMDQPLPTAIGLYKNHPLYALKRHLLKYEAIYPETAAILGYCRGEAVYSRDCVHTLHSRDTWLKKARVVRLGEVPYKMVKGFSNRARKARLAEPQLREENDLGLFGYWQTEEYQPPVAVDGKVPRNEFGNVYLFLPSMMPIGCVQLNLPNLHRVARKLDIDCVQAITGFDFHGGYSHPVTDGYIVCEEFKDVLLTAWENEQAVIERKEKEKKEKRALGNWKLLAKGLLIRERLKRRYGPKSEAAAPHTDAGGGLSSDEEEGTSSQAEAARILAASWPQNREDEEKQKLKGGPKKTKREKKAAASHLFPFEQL

Molecular target: DOT1L histone H3 lysine 79 (H3K79) methyltransferase (human (endogenous in HPM)) (UniProt Q8TEK3)
Experiment: co-IP; whole-cell extracts of HPMs subjected to 100 J m^-2 UVB; lysis buffer 50 mM Tris pH 7.4, 1% Triton X-100, 150 mM NaCl; lysate treated with DNase; IP with anti-DOT1L or anti-XPC overnight at 4 °C, western blot; with and without UVB compared for XPC and H3K79me2

xeroderma pigmentosum, complementation group C (XPC) (from UniProt Q01831 1-940)
binding: binds
